PubChem BioAssay AID504804 | Drosophila RNAi Screening Center | 2011
Purpose: 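Knock-downs shielding fly cells from apoptosis caused by DNA damage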 (primary screen). Cell system: Drosophila Kc cells. Knock-down reagent: long dsRNA against Drosophila genes, 0.5 µg dsRNA per well. Timing: 96 h (48 h knock-down, then 48 h drug). Conditions: doxorubicin 5 µg/ml for 48 h, added 48 h after dsRNA. Read-out: 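Luminescent ATP counts per replicate, not normalised, reflecting viable cells after 48 h dsRNA knock-down followed by 48 h of 5 µg/ml doxorubicin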. Direction: raw ATP luminescence: higher = more viable cells, protection from doxorubicin. Active means: 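Active when both duplicate wells lie at least 2 SD above the plate mean and protection is confirmed by rescreening and independent dsRNAs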.
In all, the deposit lists about 19,000 reagents; shown is a random part of those that have a named target and a result. Of all reagents, 47 (0.25%) got an active call. 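Signals are raw, not normalised; exact z-scores behind calls not deposited; actives needed confirmation, so some wells reaching 2 SD are inactive.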 A number with no mark means an inactive call. The numbers tell different reagents against one gene apart. A plus sign joins genes that one reagent is predicted to hit. No sequences are given here.

gene knocked down | reagent | raw ATP luminescence, replicate 1 | raw ATP luminescence, replicate 2
TwdlH (TweedleH) | 1 | 41370 | 43240
CG32773 (retired record) | 1 | 2.42e5 | 2.29e5
Dh31 (Diuretic hormone 31) | 1 | 32360 | 63003
Arl5 (ADP-ribosylation factor-like 5) | 1 | 32597 | 34603
CG15093 | 1 | 58837 | 68330
CG10301 | 1 | 59630 | 70500
Hmt-1 (Heavy metal tolerance factor 1) | 1 | 51313 | 44887
CG9919 | 1 | 3.74e5 | 3.85e5
CG40378 (retired record) | 1 | 2.22e5 | 2.69e5
cpx (complexin) | 1 | 61557 | 54237
Elp1 (Elongator complex protein 1) | 1 | 51280 | 30893
CG30076 | 1 | 76473 | 96833
CdGAPr (Cd GTPase activating protein-related) | 1 | 22977 | 24230
Cad96Cb (Cadherin 96Cb) | 1 | 95100 | 82600
Cad96Cb (Cadherin 96Cb) | 2 | 68210 | 66680
CG8945 | 1 | 3.71e5 | 3.28e5
CG8945 | 2 | 3.16e5 | 3.08e5
Capr (Caprin) | 1 | 48887 | 38460
Dtd (D-aminoacyl-tRNA deacylase) | 1 | 56183 | 48347
CR41501 (pseudo) | 1 | 1.76e5 | 1.19e5
shot (short stop) | 1 | 1.02e5 | 1.02e5
shot (short stop) | 2 | 95963 | 1.17e5
shot (short stop) | 3 | 72563 | 57203
EndoA (Endophilin A) | 1 | 52740 | 50603
CG7251 | 1 | 94947 | 74723
CG17574 | 1 | 2.52e5 | 2.49e5
CG46441 | 1 | 63127 | 47523
CG4935 | 1 | 71597 | 79247
CG34234 + Dh44-R2 | 1 | 44213 | 41027
Cul3 (Cullin 3) | 1 | 92200 | 56870
beta4GalNAcTB (beta1,4-N-acetylgalactosaminyltransferase B) | 1 | 65310 | 71890
CG9171 | 1 | 1.21e5 | 77790
Tapdelta (Translocon-associated protein delta) | 1 | 53710 | 39250
Gen (XPG-like endonuclease) | 1 | 38553 | 37050
CG6695 | 1 | 52103 | 56910
CG10877 | 1 | 50960 | 61270
Ugt37D1 (UDP-glycosyltransferase family 37 member D1) | 1 | 69507 | 67040
Tsp42Ec (Tetraspanin 42Ec) | 1 | 36840 | 62190
CG8314 | 1 | 54453 | 66127
Send2 (Spermathecal endopeptidase 2) | 1 | 75817 | 81087
CG32845 | 1 | 1.66e5 | 1.42e5
CG3434 | 1 | 45137 | 33150
Smyd4-4 (SET and MYND domain containing, class 4, member 4) | 1 | 59390 | 44930
Usp7 (Ubiquitin-specific protease 7) | 1 | 3.00e5 | 2.95e5
Usp7 (Ubiquitin-specific protease 7) | 2 | 3.58e5 | 2.97e5
CG9702 | 1 | 52790 | 50610
vls (valois) | 1 | 1.02e5 | 58967
CG33493 | 1 | 70167 | 60317
lobo (lost boys) | 1 | 80760 | 71740
lobo (lost boys) | 2 | 82980 | 79850
CG10035 | 1 | 62020 | 55643
Utx (Utx histone demethylase) | 1 | 44517 | 80903
Bili (Band4.1 inhibitor LRP interactor) | 1 | 34930 | 33573
CNBP (CCHC-type zinc finger nucleic acid binding protein) | 1 | 42717 | 48607
CNBP (CCHC-type zinc finger nucleic acid binding protein) | 2 | 70743 | 69513
Ldh (Lactate dehydrogenase) | 1 | 92747 | 99407
bcn92 | 1 | 68860 | 23990
ATPsynbeta (ATP synthase, beta subunit) | 1 | 43440 | 53480
mtgo (miles to go) | 1 | 37640 | 34717
mtgo (miles to go) | 2 | 65207 | 63953
mtgo (miles to go) | 3 | 77437 | 69820
Mdr49 (Multi drug resistance 49) | 1 | 55333 | 54287
Mst89B | 1 | 53860 | 81290
Chro (Chromator) | 1 | 23093 | 26093
Pig1 (Pre-intermoult gene 1) | 1 | 26790 | 40060
CG32409 | 1 | 1.18e5 | 1.26e5
CG32700 | 1 | 3.51e5 | 3.49e5
CG32700 | 2 | 3.02e5 | 2.94e5
CG31088 | 1 | 2.42e5 | 1.93e5
CG6503 | 1 | 52960 | 44090
stwl (stonewall) | 1 | 17637 | 17083
CG7290 | 1 | 55253 | 52920
Cpsf6 (Cleavage and polyadenylation specific factor 6) | 1 | 32420 | 36640
mRpL20 (mitochondrial ribosomal protein L20) | 1 | 73740 | 70787
CG15096 | 1 | 97333 | 83930
l(3)80Fj (lethal (3) 80Fj) | 1 | 2.04e5 | 1.92e5
l(3)80Fj (lethal (3) 80Fj) | 2 | 2.87e5 | 2.90e5
Mlc1 (Myosin alkali light chain 1) | 1 | 35890 | 37470
PIG-G (Phosphatidylinositol glycan anchor biosynthesis class G) | 1 | 91680 | 71680
Pgi (Phosphoglucose isomerase) | 1 | 61153 | 57063
ImpE1 (Ecdysone-inducible gene E1) | 1 | 86760 | 87663
ImpE1 (Ecdysone-inducible gene E1) | 2 | 71937 | 73443
CG30031 + deltaTry + CG30025 + 1 more | 1 | 2.52e5 | 2.75e5
Atg3 (Autophagy-related 3) | 1 | 18107 | 14013

Only “raw ATP luminescence, replicate 2” (11 entries from above):
Cad96Cb (Cadherin 96Cb) #1 = 82600
Cad96Cb (Cadherin 96Cb) #2 = 66680
CG8945 #1 = 3.28e5
CG8945 #2 = 3.08e5
Capr (Caprin) = 38460
Dtd (D-aminoacyl-tRNA deacylase) = 48347
CR41501 (pseudo) = 1.19e5
shot (short stop) #1 = 1.02e5
shot (short stop) #2 = 1.17e5
shot (short stop) #3 = 57203
EndoA (Endophilin A) = 50603
